Experimental data reported in the supplement of paper PMC10735217.
Where a name gives a salt, the structure may show the parent alone. The list shows a part of the results. Single values are uncertain here, since repeats match poorly.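 In a drug-repurposing library screen, luminescence reads luciferase driven by eight TEAD-binding elements, stably integrated into human kidney-derived cells. Compounds scoring over five robust Z scores above the plate mean are called hits.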

Test system: HEK293A TEAD-LUC reporter
Experiment: TEAD-luciferase reporter activity (YAP activation), robust Z score vs plate; higher = stronger YAP/TEAD activation
Settings: 24 h

Row | Compound | TEAD-luciferase reporter activity (compound concentration: 200 nM) | TEAD-luciferase reporter activity (compound concentration: 2 uM) | TEAD-luciferase reporter activity (compound concentration: 10 uM)
1 | O=C1CC(=O)[O-]->[Pt+2]2(<-[O-]1)[NH]CC[NH]2 | inactive: -0.905 | inactive: -1.02 | inactive: 1.55
2 | NC(=O)c1nnc(N[C@H]2CCCNC2)c2cc(-c3cccc(F)c3)sc12 [analog of Puquitinib] | – | inactive: 4.13 | –
3 | COc1ccc(Cl)cc1NC(=O)Cc1ccc(S(=O)(=O)Nc2ncc(CC(C)C)cn2)cc1 | inactive: -1.97 | inactive: 0.64 | inactive: -1.5
4 | COc1ccc(C(=O)/C(Cc2ccccc2)=C(\C(=O)[O-])c2ccc3c(c2)OCO3)cc1 | inactive: -1.22 | inactive: 1.02 | inactive: -0.0429
5 | Cc1nc(Cc2ccccc2)c2c(c1OCCCCNC(C)C)COC2 [Barucainide] | inactive: -0.494 | inactive: -1.73 | inactive: -0.773
6 | CSc1ccc2ncn(/C=C/C(=O)O)c(=O)c2c1 [tiacrilast] | inactive: 0.268 | inactive: -1.08 | inactive: 0.109
7 | COc1ccc(CCN(C)CCCC2(c3ccc(OC)c(OC)c3)S(=O)(=O)CCCS2(=O)=O)cc1OC | inactive: -1.11 | inactive: -2 | inactive: 2.07
8 | Cc1oc(-c2ccccc2)nc1CCOc1ccc(CC2SC(=O)NC2=O)cc1 (stereo unspecified) | inactive: 0.457 | inactive: -1.76 | inactive: -0.219
9 | CS(=O)(=O)Nc1ccc(C(=O)O[C@@H](Cc2c(Cl)c[n+]([O-])cc2Cl)c2ccc(OC(F)F)c(OCC3CC3)c2)cc1OCC1CC1 | inactive: -0.604 | inactive: -1.78 | inactive: -0.468
10 | Cc1ccc(CCN2CCCC23Cc2ccccc2CNC3=O)cc1 (stereo unspecified) | inactive: -0.772 | – | inactive: 1.17
11 | NNc1nncc2ccccc12 [Hydralazine hydrochloride] | inactive: -0.43 | – | inactive: 1.44
12 | NNc1nncc2ccccc12 [hydralazine, Fisons] | – | inactive: -0.267 | –
13 | O[C@@H]1C[C@@H](Oc2nc(N3CCNCC3)nc3ccccc23)C[C@@H]1O | inactive: -0.841 | inactive: 0.0201 | inactive: 1.52
14 | Cn1c(=O)c2c(ncn2CCOS(=O)(=O)O)n(C)c1=O | inactive: -1.79 | inactive: 0.255 | inactive: -0.31
15 | CN(C)/N=N/c1ccc(C(=O)c2ccc(OCCC(=O)NCC(=O)O)cc2)cc1 | inactive: -0.592 | inactive: -1.05 | –
16 | C[N+](C)(C)C1CCC(CC2CCC([N+](C)(C)C)CC2)CC1 (stereo unspecified) [Mebezonium Iodide] | inactive: -0.978 | inactive: 0.023 | inactive: 1.18
17 | COc1ccc(S(N)(=O)=O)cc1C(=O)NC[C@@H]1CCCN1CC1CC1 | inactive: -2.39 | inactive: 3.31 | inactive: -0.521
18 | CN(C)S(=O)(=O)c1ccc2c(c1)N(CCCN1CCC(CCO)CC1)c1ccccc1S2 | inactive: -2.3 | inactive: -0.815 | inactive: 0.0716
19 | Cc1c[nH]c(=O)n(CCCN2CCN(c3ccccc3OCC(F)(F)F)CC2)c1=O | inactive: -1.35 | inactive: -2.65 | inactive: 0.512
20 | c1ccc(C(Nc2nc3ccccc3o2)c2ccccn2)cc1 (stereo unspecified) | inactive: -2.64 | inactive: 2.38 | inactive: -0.544
21 | C/C=C1\[C@H]2C=C(C)C[C@]1(N)c1ccc(O)nc1C2 [huperzine A, Indevus] | inactive: 0.0583 | – | inactive: -0.954
22 | C/C=C1\[C@H]2C=C(C)C[C@]1(N)c1ccc(O)nc1C2 [huperzine A] | – | inactive: -0.0633 | –
23 | COC(=O)[C@H](c1ccccc1)N1CCC(c2ccc(NC(=O)c3ccccc3-c3ccc(C(F)(F)F)cc3)cc2)CC1 [usistapide] | inactive: -0.957 | inactive: -0.958 | inactive: 4.57
24 | COc1ccc(CCO[C@@H]2CCCC[C@H]2N2CC[C@@H](O)C2)cc1OC [vernakalant hydrochloride] | inactive: 0.432 | inactive: -0.201 | inactive: -1.03
25 | CC(=O)Nc1ccc(C(=O)OCCOc2ccccc2C)cc1 | inactive: 3.04 | inactive: -0.88 | inactive: -0.081
26 | O=C(c1ccc2c(c1)OCO2)N1CCC(N2Cc3ccccc3C2=O)CC1 | inactive: 1.44 | – | inactive: -0.728
27 | CC(C(=O)O)c1ccc(Oc2nccs2)cc1 (stereo unspecified) | inactive: -0.672 | inactive: 1.49 | inactive: -1.02
28 | CCOC(=O)CCNC(=O)N[C@H]1CCN(c2ccc(C(=N)N)cc2)C1=O [Orbofiban acetate] | inactive: -2.25 | inactive: 1.6 | inactive: 0.585
29 | Cc1cc(NC(=O)CC(=O)[O-])cc(C)c1Oc1ccc(O)c(C(O)c2ccc(F)cc2)c1 (stereo unspecified) | inactive: -2.04 | inactive: -0.615 | inactive: -1.46

Just TEAD-luciferase reporter activity (compound concentration: 10 uM), for some of the entries so far:
Row	Compound	TEAD-luciferase reporter activity (compound concentration: 10 uM)
4	COc1ccc(C(=O)/C(Cc2ccccc2)=C(\C(=O)[O-])c2ccc3c(c2)OCO3)cc1	inactive: -0.0429
11	NNc1nncc2ccccc12 [Hydralazine hydrochloride]	inactive: 1.44
